Laboratory results reported in publication PMC9106588.
No constants are given. Whether binding was seen depends on the method and setting. Binding seen in cells or lysates may run through a third protein. Here binding means that the protein was enriched with, or labelled near, the bait; the list need not be complete.

Chains of the proteins cited; added tags and fusions are not shown. Residues count along the entry.
UniProt Q8IWT3: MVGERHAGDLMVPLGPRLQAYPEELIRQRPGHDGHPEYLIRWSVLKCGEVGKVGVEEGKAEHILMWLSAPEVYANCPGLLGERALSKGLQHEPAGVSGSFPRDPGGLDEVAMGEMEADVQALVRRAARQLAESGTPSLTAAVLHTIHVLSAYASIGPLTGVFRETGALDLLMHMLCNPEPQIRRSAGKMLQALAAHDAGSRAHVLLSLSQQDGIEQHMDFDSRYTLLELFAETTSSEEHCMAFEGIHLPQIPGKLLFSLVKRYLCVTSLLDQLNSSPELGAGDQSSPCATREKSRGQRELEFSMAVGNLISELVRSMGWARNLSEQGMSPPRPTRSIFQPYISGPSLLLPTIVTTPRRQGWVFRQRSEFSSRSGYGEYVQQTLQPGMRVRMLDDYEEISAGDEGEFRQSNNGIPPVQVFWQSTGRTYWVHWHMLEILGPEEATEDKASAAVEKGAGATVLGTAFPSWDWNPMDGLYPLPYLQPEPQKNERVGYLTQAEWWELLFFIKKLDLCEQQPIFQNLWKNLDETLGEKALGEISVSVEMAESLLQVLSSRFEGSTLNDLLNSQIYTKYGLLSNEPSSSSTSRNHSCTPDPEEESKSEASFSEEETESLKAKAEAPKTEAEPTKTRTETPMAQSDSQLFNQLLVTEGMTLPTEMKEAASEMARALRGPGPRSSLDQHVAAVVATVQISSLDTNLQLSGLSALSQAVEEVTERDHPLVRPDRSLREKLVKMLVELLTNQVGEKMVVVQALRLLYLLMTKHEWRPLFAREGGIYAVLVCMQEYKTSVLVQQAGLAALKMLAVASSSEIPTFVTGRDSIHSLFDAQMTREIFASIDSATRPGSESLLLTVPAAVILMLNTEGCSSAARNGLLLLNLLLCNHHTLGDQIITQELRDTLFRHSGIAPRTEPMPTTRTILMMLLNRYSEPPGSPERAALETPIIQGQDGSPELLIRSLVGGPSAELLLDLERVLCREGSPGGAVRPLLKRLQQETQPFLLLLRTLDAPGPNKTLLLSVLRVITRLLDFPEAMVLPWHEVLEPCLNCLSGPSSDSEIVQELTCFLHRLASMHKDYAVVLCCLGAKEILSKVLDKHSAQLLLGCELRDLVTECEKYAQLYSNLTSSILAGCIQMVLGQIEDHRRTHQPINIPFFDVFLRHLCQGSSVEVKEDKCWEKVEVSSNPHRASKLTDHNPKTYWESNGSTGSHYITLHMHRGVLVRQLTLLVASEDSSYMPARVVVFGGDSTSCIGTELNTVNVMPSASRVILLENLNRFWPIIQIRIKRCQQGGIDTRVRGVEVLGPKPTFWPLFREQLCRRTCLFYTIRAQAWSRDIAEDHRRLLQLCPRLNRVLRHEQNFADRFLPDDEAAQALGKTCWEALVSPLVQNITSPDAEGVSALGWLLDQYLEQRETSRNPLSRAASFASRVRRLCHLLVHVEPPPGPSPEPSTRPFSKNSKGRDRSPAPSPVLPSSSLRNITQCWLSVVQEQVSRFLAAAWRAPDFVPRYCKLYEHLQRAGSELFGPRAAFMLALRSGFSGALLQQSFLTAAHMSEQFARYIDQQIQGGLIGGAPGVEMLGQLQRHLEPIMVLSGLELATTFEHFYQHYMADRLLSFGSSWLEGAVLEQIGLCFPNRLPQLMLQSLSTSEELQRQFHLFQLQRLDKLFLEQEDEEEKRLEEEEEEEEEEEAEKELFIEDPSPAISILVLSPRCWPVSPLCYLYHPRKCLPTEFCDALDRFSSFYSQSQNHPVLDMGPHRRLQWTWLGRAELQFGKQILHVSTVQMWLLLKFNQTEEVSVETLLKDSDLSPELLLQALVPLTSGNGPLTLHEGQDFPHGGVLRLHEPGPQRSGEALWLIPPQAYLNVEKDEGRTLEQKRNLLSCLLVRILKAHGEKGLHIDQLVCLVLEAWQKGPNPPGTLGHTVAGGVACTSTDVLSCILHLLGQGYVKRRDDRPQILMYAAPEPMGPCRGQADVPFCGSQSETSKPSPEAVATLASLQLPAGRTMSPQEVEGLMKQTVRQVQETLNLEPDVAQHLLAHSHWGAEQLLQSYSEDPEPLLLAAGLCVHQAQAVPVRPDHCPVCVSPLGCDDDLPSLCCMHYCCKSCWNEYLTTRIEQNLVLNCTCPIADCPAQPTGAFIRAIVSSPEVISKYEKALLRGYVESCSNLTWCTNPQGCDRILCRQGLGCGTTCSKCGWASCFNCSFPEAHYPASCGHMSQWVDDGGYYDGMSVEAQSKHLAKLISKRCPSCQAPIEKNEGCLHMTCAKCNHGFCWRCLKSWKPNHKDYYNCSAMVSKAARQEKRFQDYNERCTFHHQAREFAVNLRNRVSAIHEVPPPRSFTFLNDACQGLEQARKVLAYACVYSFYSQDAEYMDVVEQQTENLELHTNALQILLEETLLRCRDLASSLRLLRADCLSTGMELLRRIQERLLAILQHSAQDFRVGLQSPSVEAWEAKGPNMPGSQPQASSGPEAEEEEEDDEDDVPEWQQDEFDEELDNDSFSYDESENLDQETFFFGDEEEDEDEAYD
UniProt Q15843, residues 1-76: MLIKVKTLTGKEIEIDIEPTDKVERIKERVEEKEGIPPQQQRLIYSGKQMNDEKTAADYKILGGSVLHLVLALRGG
UniProt P63208: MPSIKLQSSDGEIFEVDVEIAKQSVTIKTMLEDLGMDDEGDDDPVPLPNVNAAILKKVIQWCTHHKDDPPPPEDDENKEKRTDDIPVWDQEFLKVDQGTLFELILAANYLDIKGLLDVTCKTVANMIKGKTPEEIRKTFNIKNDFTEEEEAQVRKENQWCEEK

What was measured:
[1] = biological target: cullin 9 (CUL9) (human (endogenous in HeLa)) (UniProt Q8IWT3); assay: affinity purification with mass spectrometry; MS of anti-CUL9 and anti-FBXL10 immunoprecipitates from M-phase HeLa cell lysates
[2] = biological target: T1, FBXL10 (human (endogenous in HeLa)) (UniProt Q8NHM5); assay: as above
T1 sequence: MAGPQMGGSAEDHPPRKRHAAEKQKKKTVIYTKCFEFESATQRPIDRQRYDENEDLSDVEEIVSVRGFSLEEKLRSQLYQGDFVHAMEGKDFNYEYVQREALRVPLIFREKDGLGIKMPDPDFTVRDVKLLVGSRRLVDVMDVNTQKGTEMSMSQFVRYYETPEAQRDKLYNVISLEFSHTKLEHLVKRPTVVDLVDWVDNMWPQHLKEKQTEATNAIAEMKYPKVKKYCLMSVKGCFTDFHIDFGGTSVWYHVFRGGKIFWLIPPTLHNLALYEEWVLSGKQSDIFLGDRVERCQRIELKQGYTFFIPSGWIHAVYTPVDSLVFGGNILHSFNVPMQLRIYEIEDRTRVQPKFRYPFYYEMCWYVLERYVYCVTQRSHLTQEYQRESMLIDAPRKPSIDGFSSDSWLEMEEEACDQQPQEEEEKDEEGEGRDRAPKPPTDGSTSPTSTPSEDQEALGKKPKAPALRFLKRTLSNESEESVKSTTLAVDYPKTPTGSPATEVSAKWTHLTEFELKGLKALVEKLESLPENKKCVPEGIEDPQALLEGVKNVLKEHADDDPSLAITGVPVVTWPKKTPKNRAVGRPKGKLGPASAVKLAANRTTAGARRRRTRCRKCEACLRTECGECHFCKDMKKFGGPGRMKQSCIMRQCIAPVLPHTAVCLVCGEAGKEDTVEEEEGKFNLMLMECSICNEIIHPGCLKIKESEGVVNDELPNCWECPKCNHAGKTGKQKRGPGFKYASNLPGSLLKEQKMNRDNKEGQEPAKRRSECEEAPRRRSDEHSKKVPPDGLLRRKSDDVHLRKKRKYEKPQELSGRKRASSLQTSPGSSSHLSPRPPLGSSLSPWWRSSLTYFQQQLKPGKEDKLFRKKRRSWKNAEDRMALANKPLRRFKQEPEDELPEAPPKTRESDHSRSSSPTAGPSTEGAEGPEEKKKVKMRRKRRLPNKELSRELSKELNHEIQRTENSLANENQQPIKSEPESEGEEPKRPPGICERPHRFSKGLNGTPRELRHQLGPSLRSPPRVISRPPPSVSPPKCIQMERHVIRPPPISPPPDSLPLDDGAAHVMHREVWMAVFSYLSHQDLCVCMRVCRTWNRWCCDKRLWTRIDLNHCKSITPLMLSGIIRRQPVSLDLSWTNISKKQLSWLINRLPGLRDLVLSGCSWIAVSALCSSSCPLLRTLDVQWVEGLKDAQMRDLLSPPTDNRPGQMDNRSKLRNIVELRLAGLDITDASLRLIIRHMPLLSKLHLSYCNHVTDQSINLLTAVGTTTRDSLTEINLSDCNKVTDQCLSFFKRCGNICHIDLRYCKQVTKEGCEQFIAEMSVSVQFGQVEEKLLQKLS

binding [1]	binding [2]	Substance
binds	binds	NEDD8 (from UniProt Q15843 1-76)
binds	binds	SKP1 (from UniProt P63208 1-163)
